From PubChem BioAssay AID1508600 (Functional Genomics Laboratory (NCATS/FGL), 2020)
Out of some 53,000 sequences screened, about 3,700 (7%) were called active.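 Rule for the calls: active = gene knockdowns whose robust z-score for IL-1 alpha signal is at least 2 or at most -2, so actives lie on both sides; inactive = the rest.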 The list shows a part of the results.

Assay: Components of the Cytosolic LPS Sensing Pathway: Gene Identification via Genome-wide siRNA Screen;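 note: robust z of the log signal after scaling to non-targeting control siRNA wells of the plate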
Conditions: RAW264.7 macrophages, IL-1a HTRF, actives lie on both sides, screened at 100 nM (by protocol), cells primed 5 h with Pam3CSK4 first
How it was run: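 Three distinct siRNAs per gene were tested singly at 100 nM in RAW264.7 macrophages. Following Pam3CSK4 priming and 24 hour LipidA transfection, IL-1a secretion was read by HTRF.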

z-score, inactive:
GGGCUACUCAGCCUAUAGUTT against Asic4 1.22
CCCUUGACACUUAAUAAAGTT against Zfpm1 -0.875
GCGCAAUACGUGGGUUUGUTT against Shisal2b 0.254
GGUCCAAAGAAAGACCCAUTT against Cypt4 -0.131
GGUCCUCAUGGGCAACAUUTT against Olfr624 -1.69
CCAUGAAGUAUGGAACAACTT against Mccc1 -0.74
GGUGUUGGUGAACGUAAAGTT against Eif3i -1.45
GGCGGCCUAUAUGAGGUUCTT against Cftr 0.548
GGAGCUAGUAUGUUCAACATT against Ubqln1 -0.942
GGAGUUAUCCGUAUUAGUGTT against Sbno2 -0.21
CCUGUAAGAACCUUGCCUATT against Sytl3 0.733
GGGAAAAUAACGGUGAAUATT against Hspb8 -0.386
CCCAGCAUGGAUCAAGCACTT against Krt73 0.864
GCACAUCGAAAAUGCCCUGTT against Cpt1c -0.154
CGAACUGGGCAGUAUAAACTT against Fgf2 0.964
GGGAGCAUCAGUUAAUUUUTT against Yes1 0.482
GGAUAACCCUCAGAAGUCCTT against Was 0.664
CCGUCAUCUGCUCUGAUUUTT against Cd5 -0.121
GGGUCUUCUUCCUGAGUGUTT against Ak8 -1.67
CGAGUUUAAAGACCUGGAGTT against Gjb6 1.09
GGACUUGAAAUUAGCAAAATT against Arhgef3 -0.0218
GGAUGUCAGGCUUUGUACATT against Alg6 0.848
GCGGGACUACACUCUUAAGTT against Car15 0.575
GGCAGUGGACCACAUCAACTT against Eno2 -0.253
GUGGUUGAACGGGAAUUUGTT against Gm11487 0.542
GAAGGAAGUUGGAAAGAACTT against Bcl2a1c 0.195
GGUGCACUACACCACAAACTT against Stbd1 0.169
GCGAGUUCGGAAGAAGUAUTT against Ddx41 -0.198
GGGUCCUCUCCACAUCAAGTT against Iba57 0.224
CCUCCAAGACUUAAAAGUATT against Csde1 0.776
GAAGAGCAAGCCAUUUGAUTT against Lipi -0.443
GGGAUGGUAACAGGAAGUGTT against A530016L24Rik 1.32
GGCACUUGCUCAUUCAUUCTT against Zbtb10 1.34
GCAACUUACAAGCAGGCCGTT against Fcgr3 -0.199
CCACGUCCUCUACUUGUAUTT against Nmbr -0.813
GCCUAGUCCACUUUAUCCUTT against Def8 -1.22
GGACCAACCUUAUAUGAAATT against Brix1 1.04
GCUGUGGUACAACCACAUUTT against Lrrc8a -0.244
GCUAUGUAACACACCGCUGTT against Ticam1 -1.24
GGAGAAGAUGUCAUCCAGATT against Zfp467 -0.37
GGGACCUAAAGUCACAGUCTT against Ppib -0.429
GGAGAAGGAGUUCCUUAUGTT against Ikbkg 1.26
CCUUUGUACAAUGUAUAGATT against Fam76a 0.256
GGCAGAAGAAGUAUUCUAUTT against Sgk1 -0.223
GGACAUAAAGAAGGAACUUTT against Myt1 -1.93
GGAAAUCAAAGAACUGUAUTT against Atl3 1.33
GGCAGAACUACUUUUAUAGTT against Cldn17 0.436
GGCCUUGUAUAAAACACAUTT against Pah 0.293
GCCAUUCUAACUCUGCCUCTT against Olfr639 0.232
GCUCUGAGUGAGUCAAAAGTT against Memo1 0.108
GCGUCCUGUUCUGUAUCAATT against Tas2r126 0.386
GGAAGAUUGAAUUUGACUCTT against Rpn2 -0.642
GGCAUUAUAAGUGACCUUATT against Smarcc1 1.53
GGCUUAUAGGAGGCUCUCUTT against Prop1 -1.27
GGCUCUGGAAAACUCAAAUTT against Heatr5b 0.941
GGGCUCAGUAGUAAAUAUGTT against Zswim1 -0.0513
GGACACAGCAAGGAAGAAATT against Mad2l1bp 0.335
GGCCUAAAUCUAAUCAAAGTT against Itfg1 1.46
GGAGGUGAAGAUGGCCAUGTT against Olfr285 0.349
GCCAAUUUGAAGGUUUUCATT against Tlr8 1.58
CGUGAUCAAAACUCACAUGTT against Slc25a38 0.822
GGCAAUUUUUACACAGAAATT against Pink1 -0.925
GGGAACAAGAUGCUCUGUGTT against Sapcd1 -0.15
CCUAUACAAAGGGAAGUGCTT against Rspo4 -0.797
GGUUUAUCAGAAAGCCUCGTT against Dlgap1 0.48
GGAAAUGGUUAACAUCAUUTT against Mtmr9 0.0103
CGGCAGUCGUGAGACAUAUTT against Camk1d -1.01

A portion from further up, for reference:
z-score, inactive:
GGAGAAGAUGUCAUCCAGATT against Zfp467 -0.37
GGGACCUAAAGUCACAGUCTT against Ppib -0.429
GGAGAAGGAGUUCCUUAUGTT against Ikbkg 1.26
CCUUUGUACAAUGUAUAGATT against Fam76a 0.256
GGCAGAAGAAGUAUUCUAUTT against Sgk1 -0.223
GGACAUAAAGAAGGAACUUTT against Myt1 -1.93
GGAAAUCAAAGAACUGUAUTT against Atl3 1.33
GGCAGAACUACUUUUAUAGTT against Cldn17 0.436
GGCCUUGUAUAAAACACAUTT against Pah 0.293
GCCAUUCUAACUCUGCCUCTT against Olfr639 0.232
GCUCUGAGUGAGUCAAAAGTT against Memo1 0.108
GCGUCCUGUUCUGUAUCAATT against Tas2r126 0.386
GGAAGAUUGAAUUUGACUCTT against Rpn2 -0.642
GGCAUUAUAAGUGACCUUATT against Smarcc1 1.53
GGCUUAUAGGAGGCUCUCUTT against Prop1 -1.27
GGCUCUGGAAAACUCAAAUTT against Heatr5b 0.941
GGGCUCAGUAGUAAAUAUGTT against Zswim1 -0.0513
GGACACAGCAAGGAAGAAATT against Mad2l1bp 0.335
GGCCUAAAUCUAAUCAAAGTT against Itfg1 1.46
GGAGGUGAAGAUGGCCAUGTT against Olfr285 0.349
GCCAAUUUGAAGGUUUUCATT against Tlr8 1.58

Next part:

z-score, active:
GCCAUUGGGUGUAACAUUUTT against Mpp6 3.35
GCUGGUUACUCCCAAGACGTT against Dlgap2 2.18
